Test results reported in article PMC3682188, “Membrane Binding and Self-Association of the Epsin N-Terminal Homology Domain” (Journal of Molecular Biology, 2012).
These are yes or no findings as the source states them, for the method shown. Some entries that bind do so weakly or less than the wild type. One block for each substance: values may come before it.

Amino acid sequences for entries named in this document (tags omitted). A change or cut given only in a name is not applied to a line headed by its entry. Chains listed by the source or under a name are the forms on record and can include a tag or linker.
rat epsin 1 ENTH domain (1-164), spin-labeled derivative 5R1 (O88339, form named): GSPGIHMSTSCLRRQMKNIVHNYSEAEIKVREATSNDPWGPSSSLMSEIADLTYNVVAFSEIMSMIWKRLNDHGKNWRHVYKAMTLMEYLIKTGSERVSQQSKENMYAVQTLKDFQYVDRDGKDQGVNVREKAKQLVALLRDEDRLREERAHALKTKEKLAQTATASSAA
rat epsin 1 ENTH domain (1-164), spin-labeled derivative 6R1 (O88339, form named): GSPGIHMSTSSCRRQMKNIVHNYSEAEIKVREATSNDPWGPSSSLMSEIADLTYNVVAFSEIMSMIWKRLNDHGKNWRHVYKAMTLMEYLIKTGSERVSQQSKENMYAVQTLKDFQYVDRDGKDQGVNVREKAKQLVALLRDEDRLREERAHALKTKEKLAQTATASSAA
rat epsin 1 ENTH domain (1-164), spin-labeled derivative 4R1 (O88339, form named): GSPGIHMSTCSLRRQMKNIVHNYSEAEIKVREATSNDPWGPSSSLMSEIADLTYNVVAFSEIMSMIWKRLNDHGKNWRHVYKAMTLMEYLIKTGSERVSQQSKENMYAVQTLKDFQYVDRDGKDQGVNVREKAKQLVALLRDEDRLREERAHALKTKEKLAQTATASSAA
rat epsin 1 ENTH domain (1-164), spin-labeled derivative 13R1 (O88339, form named): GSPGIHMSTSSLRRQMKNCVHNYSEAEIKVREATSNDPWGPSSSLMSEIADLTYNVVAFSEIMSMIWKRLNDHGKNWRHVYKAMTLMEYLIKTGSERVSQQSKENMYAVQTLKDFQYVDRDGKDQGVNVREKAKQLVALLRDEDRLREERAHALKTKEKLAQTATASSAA

Tests used:
[1] = molecular target: rat epsin 1 ENTH domain (1-164), spin-labeled derivative 5R1 (rat) (UniProt O88339); assay: EPR spectroscopy (spin-spin interaction of singly labeled protein); bound to preformed tubules, frozen state; data not shown; both purified
[2] = molecular target: rat epsin 1 ENTH domain (1-164), spin-labeled derivative 5R1 (rat) (UniProt O88339); assay: EPR spectroscopy (spin-spin interaction of singly labeled protein, with spin dilution); bound to preformed lipid tubules (10% cholesterol/40% phosphatidylcholine/40% galactocerebrosides/10% PIP2); 10 uM protein with 60 ug tubes in 100 ul, 10 min at RT, pelleted at 152,800g; 20 mM Hepes pH 7.4, 150 mM NaCl; fully labeled compared with 33% labeled and 67% unlabeled protein; both …
[3] = molecular target: rat epsin 1 ENTH domain (1-164), spin-labeled derivative 6R1 (rat) (UniProt O88339); assay: EPR spectroscopy (spin-spin interaction of singly labeled protein); bound to preformed tubules, frozen state; data not shown; both purified
[4] = molecular target: rat epsin 1 ENTH domain (1-164), spin-labeled derivative 6R1 (rat) (UniProt O88339); assay: EPR spectroscopy (spin-spin interaction of singly labeled protein, with spin dilution); bound to preformed lipid tubules (10% cholesterol/40% phosphatidylcholine/40% galactocerebrosides/10% PIP2); 10 uM protein with 60 ug tubes in 100 ul, 10 min at RT, pelleted at 152,800g; 20 mM Hepes pH 7.4, 150 mM NaCl; fully labeled compared with 33% labeled and 67% unlabeled protein; both …
[5] = molecular target: rat epsin 1 ENTH domain (1-164), spin-labeled derivative 4R1 (rat) (UniProt O88339); assay: EPR spectroscopy (spin-spin interaction of singly labeled protein); bound to preformed tubules, frozen state; data not shown; both purified
[6] = molecular target: rat epsin 1 ENTH domain (1-164), spin-labeled derivative 4R1 (rat) (UniProt O88339); assay: EPR spectroscopy (spin-spin interaction of singly labeled protein, with spin dilution); bound to preformed lipid tubules (10% cholesterol/40% phosphatidylcholine/40% galactocerebrosides/10% PIP2); 10 uM protein with 60 ug tubes in 100 ul, 10 min at RT, pelleted at 152,800g; 20 mM Hepes pH 7.4, 150 mM NaCl; fully labeled compared with 33% labeled and 67% unlabeled protein; both …
[7] = molecular target: rat epsin 1 ENTH domain (1-164), spin-labeled derivative 13R1 (rat) (UniProt O88339); assay: EPR spectroscopy (spin-spin interaction of singly labeled protein); bound to preformed tubules, frozen state; data not shown; both purified
[8] = molecular target: rat epsin 1 ENTH domain (1-164), spin-labeled derivative 13R1 (rat) (UniProt O88339); assay: EPR spectroscopy (spin-spin interaction of singly labeled protein, with spin dilution); bound to preformed lipid tubules (10% cholesterol/40% phosphatidylcholine/40% galactocerebrosides/10% PIP2); 10 uM protein with 60 ug tubes in 100 ul, 10 min at RT, pelleted at 152,800g; 20 mM Hepes pH 7.4, 150 mM NaCl; fully labeled compared with 33% labeled and 67% unlabeled protein; both …

- binding [1]: binds
- binding [2]: binds
Substance: rat epsin 1 ENTH domain (1-164), spin-labeled derivative 5R1 (from UniProt O88339 1-164) (domain or fragment)

- binding [3]: binds
- binding [4]: binds
Substance: rat epsin 1 ENTH domain (1-164), spin-labeled derivative 6R1 (from UniProt O88339 1-164) (domain or fragment)

- binding [5]: binds
- binding [6]: binds
Substance: rat epsin 1 ENTH domain (1-164), spin-labeled derivative 4R1 (from UniProt O88339 1-164) (domain or fragment)

- binding [7]: binds
- binding [8]: binds
Substance: rat epsin 1 ENTH domain (1-164), spin-labeled derivative 13R1 (from UniProt O88339 1-164) (domain or fragment)
